Laboratory results: PubChem BioAssay AID1259308 (NCATS, 2017)
Assay: 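Genes whose loss raises luciferase production in HEK293 cells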 (primary screen). Cells: human HEK293 embryonic kidney cells stably expressing firefly luciferase (HEK-CMV-Luc2-Hygro). Reagent: single siRNA against human genes, 0.8 pmol siRNA per well. Timing: 72 h. Detection: 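Reporter luminescence and viable-cell signal on separate replicate plates, given as percent of non-targeting control and median/MAD z-scores, plus per-cell luciferase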. Scale: total luciferase, z-score and total luciferase, % of control: higher = more reporter protein produced; luciferase per cell, z-score: higher = more reporter output per viable cell; viable cells, % of control: higher = more viable cells. Call rule: 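Active when the median/MAD z-score for overall luciferase is greater than 3; a gene was taken forward for validation with new siRNAs if at least two of its three siRNAs passed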. Calls: active = raised luciferase; inactive = no rise.
Here is an unselected part of about 59,000 reagents. About 1,510 of all reagents (2.6%) count as active. 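Calls use total luciferase alone and ignore viability, so some active siRNAs may act by altering cell number.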 A number with no mark means an inactive call. Reagents against one gene are numbered here.

| target | siRNA no. | total luciferase, z-score | total luciferase, % of control | luciferase per cell, z-score | viable cells, % of control |
| --- | --- | --- | --- | --- | --- |
| AVPR1B | 1 | 1.37 | 109 | 0.552 | 105 |
| AVPR1B | 2 | 1.55 | 113 | 1.43 | 86.6 |
| AVPR1B | 3 | -0.604 | 69.9 | -0.16 | 81.4 |
| DUSP5 | 1 | 1.49 | 111 | 3.04 | 56 |
| DUSP5 | 2 | 0.112 | 84.1 | 0.882 | 74.5 |
| DUSP5 | 3 | 1.07 | 103 | 0.368 | 105 |
| BCOR | 1 | 1.27 | 107 | 0.244 | 112 |
| BCOR | 2 | 1.76 | 117 | 1.44 | 89.4 |
| BCOR | 3 | 0.226 | 86.4 | -0.261 | 103 |
| ID3 | 1 | 2.16 | 125 | 1.37 | 97.3 |
| ID3 | 2 | -0.0965 | 80 | 3.37 | 36.8 |
| ID3 | 3 | 1.49 | 112 | 1.14 | 92.4 |
| C16orf86 | 1 | 1.39 | 109 | 0.835 | 98.2 |
| C16orf86 | 2 | 0.92 | 100 | 0.487 | 98.5 |
| C16orf86 | 3 | 1.1 | 104 | 1.24 | 83.6 |
| C1QL2 | 1 | 0.723 | 96.3 | 1.15 | 79.6 |
| C1QL2 | 2 | -2.87 | 24.8 | -3.98 | 78.9 |
| C1QL2 | 3 | 0.26 | 87 | -0.407 | 108 |
| IL17D | 1 | -1.47 | 52.7 | -1.1 | 78.6 |
| IL17D | 2 | -0.438 | 73.2 | -0.584 | 95.4 |
| IL17D | 3 | -0.248 | 77 | 0.991 | 66.2 |
| DDIT4L | 1 | -0.351 | 74.9 | -0.57 | 97.3 |
| DDIT4L | 2 | 0.68 | 95.4 | 0.557 | 92.1 |
| DDIT4L | 3 | 1.28 | 107 | 0.687 | 100 |
| KCNG1 | 1 | 0.567 | 93.2 | 1.32 | 73.5 |
| KCNG1 | 2 | -0.495 | 72 | -0.231 | 85.5 |
| KCNG1 | 3 | 0.442 | 90.7 | 0.727 | 83.7 |
| PRR7 | 1 | -0.11 | 79.7 | -0.201 | 93.9 |
| PRR7 | 2 | 0.736 | 96.5 | 0.969 | 83.6 |
| PRR7 | 3 | 0.11 | 84.1 | -0.858 | 118 |
| NNAT | 1 | 0.525 | 92.3 | 0.536 | 89.6 |
| NNAT | 2 | -0.878 | 64.4 | -1.54 | 108 |
| NNAT | 3 | 0.016 | 82.2 | -0.281 | 98.9 |
| GPR183 | 1 | 0.327 | 88.4 | 0.589 | 84.6 |
| GPR183 | 2 | -1.57 | 50.7 | -1.89 | 93.1 |
| GPR183 | 3 | -0.702 | 67.9 | -1.1 | 101 |
| C16orf89 | 1 | 2.82 | 138 | 2.15 | 87.6 |
| C16orf89 | 2 | 1.2 | 106 | 0.693 | 98.5 |
| C16orf89 | 3 | 0.195 | 85.8 | 0.257 | 89.6 |

Laid out differently: entries from further up
target | siRNA no. | total luciferase, z-score | total luciferase, % of control | luciferase per cell, z-score | viable cells, % of control
KCNG1 | 1 | 0.567 | 93.2 | 1.32 | 73.5
KCNG1 | 2 | -0.495 | 72 | -0.231 | 85.5
